Laboratory results reported in EP0987275B1, “Molecules that home to a selected organ or tissue in vivo” (LA JOLLA CANCER RESEARCH FOUNDATION, priority 1995, dated 2008).
Not every detail of the peptide structures is certain; ends, links or a residue may be inferred. Where a SMILES comes first, the peptide text is derived from it. Bridges are numbered along the chain shown (N, C = ends). Where no end group is shown, it is not given here.

Legend:
brain [1] = assay: In vivo panning of phage peptide display libraries, brain as the selected organ (kidney control); design: species or system mice; conditions: % of the 73 clones sequenced, phage recovered from brain
Method: Phage display libraries were constructed using the fuse 5 vector as described by Koivunen et al. (supra, 1995; see, also, Koivunen et al. Meth. Enzymol. 245:346-369 (1994b), which is incorporated herein by reference). Six libraries encoding peptides designated CX5C (SEQ ID NO: 36), CX6C (SEQ ID NO: 37), CX7C (SEQ ID NO: 38), CX9 (SEQ ID NO: 39), X2CX14CX2 (SEQ ID NO: 40) and X2CX18 (SEQ ID NO: 41) were prepared, where "C" indicates cysteine and "XN" indicates the given number of individually selected amino acids. These libraries can display cyclic peptides when at least two cysteine residues are present in the peptide.
Oligonucleotides were constructed such that "C" was encoded by the codon TGT and "XN" was encoded by NNK, where "N" is equal molar mixtures of A, C, G and T, and where "K" is equal molar mixtures of G and T. Thus, the peptide represented by CX5C (SEQ ID NO: 36) can be represented by an oligonucleotide having the sequence TGT(NNK)5TGT (SEQ ID NO: 42). […]
Individual colonies containing phage recovered from brain or kidney were grown for 16 hr in 5 ml NZY/tet. […] Phage DNA was purified from individual bacterial colonies obtained from the second and the third round of in vivo panning and the DNA sequences encoding the peptides expressed by selected phage were determined (see Koivunen et al., supra, 1994b). […]

brain [2] = conditions: 100 µg synthetic cyclic peptide injected with 1 x 10^8 TU phage
brain [3] = assay: Homing of 125I-peptide/RBC complex to brain, with peptide competition; type: in vivo, mouse; conditions: 10 mM unlabeled peptide
Method: The synthetic cyclic CLSSRLDAC (SEQ ID NO: 3) peptide (1 mg) was labeled with iodine-125 using the Bolton and Hunter reagent (Amersham; Arlington Heights IL). Labeled peptide was purified by reverse phase HPLC on Sep-Pak™ cartridges (Waters, Millipore Corp.; Milford PA) and the ^125I-peptide (200 µg) was coupled to 1 ml glutaraldehyde-stabilized sheep RBC (Sigma Chemical Co.; St. Louis MO) according to the manufacturer's instructions.
Fifty µl ^125I-peptide/RBC (200,000 cpm), alone or with 10 mM of unlabeled CLSSRLDAC (SEQ ID NO: 3), which is a brain homing peptide, or CVRLNSLAC (SEQ ID NO: 43), which has no brain homing activity, was injected into the tail vein. After 2 min, each mouse was perfused through the heart with 50 ml DMEM and the brain and kidney were removed and assayed for radioactivity.

[4] = tested on: Human 435 breast carcinoma cells; assay: Competition of RGD phage tumor homing by coinjected free peptide; type: in vivo, nude mice; conditions: coinjection of 500 µg free peptide
Method: Human 435 breast carcinoma cells were inoculated into the mammary fat pad of nude mice. When the tumors attained a diameter of about 1 cm, phage expressing a specific RGD-containing peptide were administered to the tumor bearing mouse. Similar results to those discussed below also were obtained with nude mice bearing tumors formed by implantation of human melanoma C8161 cells or by implantation of mouse B16 melanoma cells.
1 x 10^9 phage expressing the RGD-containing peptide, […] (SEQ ID NO: 57; see, Koivunen et al., supra, 1995) or control (insertless) phage were injected intravenously (iv) into the mice and allowed to circulate for 4 min. The mice then were snap frozen while under anesthesia, and various organs, including tumor, brain and kidney, were removed and the phage present in the organs was quantitated (see Pasqualini and Ruoslahti, supra, 1996).

Compound	(% PHAGE) (brain [1]) [%]	effect on homing of CENWWGDVC phage to brain (brain [2])	inhibition of homing of phage expressing CLSSRLDAC to brain (brain [2])	effect of coadministered unlabeled peptide on brain homing of the CLSSRLDAC/RBC complex (brain [3])	effect of coadministered unlabeled peptide on complex localizing to the kidney (brain [3])	reduction of the amount of RGD phage in the tumor by coinjected free peptide [4]
CC(C)C[C@@H]1NC(=O)[C@H](CCCNC(=N)N)NC(=O)[C@H](CO)NC(=O)[C@H](CO)NC(=O)[C@H](CC(C)C)NC(=O)[C@@H](N)CSSC[C@@H](C(=O)O)NC(=O)[C@H](C)NC(=O)[C@H](CC(=O)O)NC1=O [CLSSRLDAC] (H-CLSSRLDAC-OH; disulfide 1-9)	8.2	did not affect	about 60%	essentially completely inhibited	no effect	
GRGESP [GRGESP]						essentially had no effect
